Values of other authors, collected in patent US20120289541A1 (NOVARTIS AG, priority 2010, published 2012).
Values after ≈ are worked out from the molar mass of the structure shown. At least one structure is not confirmed: it was looked up by name or label, or the drawing left a doubt.

Test system: Haemophilus influenza
Settings: cited from earlier work

## COc1c(N2C[C@@H]3CCCN[C@@H]3C2)c(F)cc2c(=O)c(C(=O)O)cn(C3CC3)c12 [moxifloxacin]
  MIC90: 0.06 µg/mL (≈ 0.149 µM)
